These results are taken from patent publication US5167824A, “Separation by carrier mediated transport” (priority 1990, dated 1992).

Data set [1] is described as follows: Oleandrin transport through supported liquid membrane without binding protein. Particulars: no binding protein. The source says:
(§1) A hollow fiber device was constructed using 100×17.8 cm PAN fibers, produced by Sepracor, Inc., Marlborough, Mass. Each PAN fiber is a tubular membrane having a wall thickness of 50 μm and an internal diameter of 205 μm. Thus, this device contains a geometric surface area of 115 cm^2 of PAN fiber. The associated fluid handling equipment comprised two peristaltic pumps, one for the shell loop and one for the luman loop, a pressure gauge on the shell loop for determining the pressure drop from the shell side to the lumen side, and a throttling valve for creating a positive pressure on the shell side.
The device was first washed with 1 L of water. This washing involved convecting water through the lumen, through the shell, and through the PAN fibers from shell-side to lumen.
Following the washing procedure, the liquid membrane was put in place. A buffer solution of the same composition as that in which the FB-sFv protein was dissolved (50 mM sodium chloride) was pumped through the fibers, from the shell-side to the lumen. Approximately 100 mls of buffer solution were convected through the fibers. Both the lumen and shell were then drained of bulk aqueous solution, and 1-octanol previously saturated with the same buffer solution was introduced into both the shell and lumen fluid loops. After establishing uninterrupted convection of 1-octanol through these loops, the throttling valve was closed until a shell-to-lumen pressure drop of 10 psi was created across the fibers. The octanol in both the shell and lumen loops were fed from separate reservoirs, both containing 100 mls of 1-octanol previously saturated with the same buffer used as the supported liquid membrane.
Oleandrin is a cardiac glycoside having a molecular weight of 576, and an organic to aqueous partition coefficient between 1-octanol and water of 338 (Cohnen et al, Drug Res. 28 (II), Heft 12, 1978). This translates to an aqueous to organic coeffient S of about 0.003. The glycoside was dissolved to a final concentration of 2.0 mgs/ml (3.5 mM) in 500 mls of 1-octanol previously saturated with buffer. This reservoir was then placed in the shell fluid loop. A reservoir containing 50 ml of buffer saturated 1-octanol, containing no oleandrin, was placed in the lumen fluid loop, and circulation of these reservoirs through their respective fluid loops commenced. The pressure differential of 10 psi was maintained across the supported liquid membrane. The volumes of the reservoirs were noted, and again observed not to change over a 20 hour period. During this period, successive 1 ml samples of the lumen reservoir were taken. […] The quantity of oleandrin contained in each lumen reservoir sample was determined by HPLC.

In data set [2] the test system is FB-sFv 26-10. As to the kind of experiment: Oleandrin facilitated transport through supported liquid membrane containing FB-sFv 26-10. Also noted: species or system murine. The note with it: for oleandrin concentration (lumen reservoir): 6.0 mgs binding protein.
From the text: as §1
The fluid loops were then drained. 100 mls of buffer containing 10.0 mgs of FB-sFv 26-10 produced as disclosed above were then slowly ultrafiltered from the shell loop at a pressure of 10 psi. […] After this time, no bulk fluid, either aqueous or organic, was present in either loop. […] Since an optical density of 1.0 at 280 nm indicates a protein concentration of 1.0 mg/ml, the filtrate contained 4.0 mgs protein. 6.0 mgs of FB-sFv 26-10 were therefore assumed to be contained in the supported liquid membrane.
Octanol saturated with buffer, but not containing oleandrin, was then convected through each loop, with the 10 psi pressure differential across the supported liquid membrane. Once uninterrupted convection through each loop was established, the shell loop reservoir was replaced with a reservoir containing 500 mls of octanol saturated with buffer, and containing 2.0 mg/ml oleandrin. The lumen reservoir was replaced with a reservoir containing 50 mls of buffer saturated octanol, containing no oleandrin. Over a 24 hour period, no convective flow of octanol through the supported liquid membrane occurred.
During this period, successive 1 ml samples of the lumen reservoir were taken. In order not to disturb the volume of the lumen reservoir, the octanol taken in each sample was replaced with 1 ml of buffer saturated octanol after drawing each sample. The quantity of oleandrin contained in each lumen reservoir sample was determined by HPLC.

Several values for one entry are separate records, joined by “and”; a condition that tells them apart may be missing. Identical values can stand only once.

Consider `CO[C@H]1C[C@H](O[C@H]2CC[C@@]3(C)[C@H](CC[C@@H]4[C@@H]3CC[C@]3(C)[C@@H](C5=CC(=O)OC5)[C@@H](OC(C)=O)C[C@]43O)C2)O[C@@H](C)[C@@H]1O` [Oleandrin, oleandrin], for which the “oleandrin concentration (lumen reservoir)” value (shortened to “oleandrin concentration”) is 0 mg/mL in data set [1] (0 hrs); 0.05 mg/mL and 0.050 mg/mL in data set [1] (19.0 hrs); 0.04 mg/mL and 0.040 mg/mL in data set [1] (20.0 hrs); 0 mg/mL in data set [2] (0 hrs); 0.016 mg/mL in data set [2] (0.5 hrs); 0.025 mg/mL in data set [2] (1.0 hrs). Moreover, the “oleandrin concentration” value turned out to be 0.047 mg/mL in data set [2] (2.0 hrs); 0.067 mg/mL in data set [2] (3.0 hrs); 0.090 mg/mL in data set [2] (4.0 hrs); 0.119 mg/mL in data set [2] (6.0 hrs); 0.134 mg/mL in data set [2] (7.0 hrs); 0.140 mg/mL in data set [2] (7.5 hrs). In addition, the “oleandrin concentration” value in data set [2] (23.0 hrs) turned out to be 0.335 mg/mL; in data set [2] (24.0 hrs), 0.350 mg/mL. Besides, in data set [1] (before 6 hours), the “detectable oleandrin in lumen reservoir” value is listed as “did not demonstrate detectable quantities”. Further, the average facilitation factor in data set [2] (24-hour average) is reported as 4.5. In data set [2] (initial), this compound had an initial facilitation factor of 8.3.
